Source: patent publication US20250000128A1, “SALTINESS ENHANCING COMPOSITION, AND COMPOSITION FOR ORAL USE AND METHOD OF ENHANCING SALTINESS THEREOF” (Nagase Viita Co., Ltd., priority 2021, published 2025)

Experiment: Sensory evaluation of saltiness enhancing effect of salt coated with enzyme-treated naringin (Experiment 5)
Assay type: in vivo, human

Question: What does the source list for CC1O[C@@H](OC2C(O[C@H]3OC(CO)[C@@H](O)C(O)C3O)[C@H](O)C(CO)O[C@H]2Oc2cc(O)c3c(c2)OC(c2ccc(O)cc2)CC3=O)C(O)C(O)[C@H]1O (stereo partly drawn) [3″-α-GN, 3″-α-monoglucosyl naringin]?
Answer: Bitterness (all of the test samples from Experiment 5, including the test sample 15, sprayed as enzyme-treated naringin): without showing bitterness; Bitterness (test sample 18 (3″-α-GN 3500 ppm), sprayed as enzyme-treated naringin): strong bitterness
